The source of these data is article doi:10.1101/2024.11.02.621644.

Protein sequences, listed by entry. Tags and fused reporters are not part of them.
UniProt O00571: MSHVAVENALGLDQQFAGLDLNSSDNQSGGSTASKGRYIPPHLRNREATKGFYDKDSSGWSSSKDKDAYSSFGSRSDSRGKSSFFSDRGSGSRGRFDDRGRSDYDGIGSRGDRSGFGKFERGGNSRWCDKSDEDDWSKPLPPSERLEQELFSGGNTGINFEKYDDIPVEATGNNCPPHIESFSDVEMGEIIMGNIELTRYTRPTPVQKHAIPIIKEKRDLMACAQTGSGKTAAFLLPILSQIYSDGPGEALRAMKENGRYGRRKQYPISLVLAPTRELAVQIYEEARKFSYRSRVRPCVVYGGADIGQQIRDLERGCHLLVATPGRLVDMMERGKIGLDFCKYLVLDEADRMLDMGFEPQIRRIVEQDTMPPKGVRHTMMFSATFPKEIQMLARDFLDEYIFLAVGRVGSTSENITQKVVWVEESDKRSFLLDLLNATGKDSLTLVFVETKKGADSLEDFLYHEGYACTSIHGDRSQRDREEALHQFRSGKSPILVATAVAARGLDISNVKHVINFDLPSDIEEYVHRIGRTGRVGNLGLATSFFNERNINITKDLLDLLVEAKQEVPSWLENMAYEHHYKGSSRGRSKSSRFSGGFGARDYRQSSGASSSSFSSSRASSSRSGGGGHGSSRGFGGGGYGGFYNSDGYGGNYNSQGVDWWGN
UniProt Q9NYF8: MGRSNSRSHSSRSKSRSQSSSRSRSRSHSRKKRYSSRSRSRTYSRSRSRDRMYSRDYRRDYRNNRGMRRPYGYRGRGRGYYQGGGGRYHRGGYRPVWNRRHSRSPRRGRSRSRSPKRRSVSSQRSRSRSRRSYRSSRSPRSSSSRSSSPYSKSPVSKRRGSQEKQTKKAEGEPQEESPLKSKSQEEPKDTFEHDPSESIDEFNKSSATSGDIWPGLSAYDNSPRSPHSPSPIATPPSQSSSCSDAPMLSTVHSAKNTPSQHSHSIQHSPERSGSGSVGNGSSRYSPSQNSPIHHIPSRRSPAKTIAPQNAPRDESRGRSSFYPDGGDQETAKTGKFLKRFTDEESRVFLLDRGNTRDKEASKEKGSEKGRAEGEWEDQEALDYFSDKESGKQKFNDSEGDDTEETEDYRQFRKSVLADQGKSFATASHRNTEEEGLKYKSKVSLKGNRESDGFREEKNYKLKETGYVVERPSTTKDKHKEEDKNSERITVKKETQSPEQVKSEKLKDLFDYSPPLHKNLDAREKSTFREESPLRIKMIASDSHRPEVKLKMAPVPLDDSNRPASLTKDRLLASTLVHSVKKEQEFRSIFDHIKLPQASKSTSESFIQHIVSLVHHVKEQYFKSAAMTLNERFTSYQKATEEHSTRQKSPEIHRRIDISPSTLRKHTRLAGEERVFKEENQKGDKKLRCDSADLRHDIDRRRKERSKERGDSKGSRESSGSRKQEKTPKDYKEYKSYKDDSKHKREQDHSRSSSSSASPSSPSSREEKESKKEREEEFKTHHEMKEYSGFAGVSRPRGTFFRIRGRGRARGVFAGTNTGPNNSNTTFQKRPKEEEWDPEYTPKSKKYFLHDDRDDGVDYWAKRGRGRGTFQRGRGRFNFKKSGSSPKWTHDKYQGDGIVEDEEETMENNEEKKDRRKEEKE
UniProt Q86WJ1: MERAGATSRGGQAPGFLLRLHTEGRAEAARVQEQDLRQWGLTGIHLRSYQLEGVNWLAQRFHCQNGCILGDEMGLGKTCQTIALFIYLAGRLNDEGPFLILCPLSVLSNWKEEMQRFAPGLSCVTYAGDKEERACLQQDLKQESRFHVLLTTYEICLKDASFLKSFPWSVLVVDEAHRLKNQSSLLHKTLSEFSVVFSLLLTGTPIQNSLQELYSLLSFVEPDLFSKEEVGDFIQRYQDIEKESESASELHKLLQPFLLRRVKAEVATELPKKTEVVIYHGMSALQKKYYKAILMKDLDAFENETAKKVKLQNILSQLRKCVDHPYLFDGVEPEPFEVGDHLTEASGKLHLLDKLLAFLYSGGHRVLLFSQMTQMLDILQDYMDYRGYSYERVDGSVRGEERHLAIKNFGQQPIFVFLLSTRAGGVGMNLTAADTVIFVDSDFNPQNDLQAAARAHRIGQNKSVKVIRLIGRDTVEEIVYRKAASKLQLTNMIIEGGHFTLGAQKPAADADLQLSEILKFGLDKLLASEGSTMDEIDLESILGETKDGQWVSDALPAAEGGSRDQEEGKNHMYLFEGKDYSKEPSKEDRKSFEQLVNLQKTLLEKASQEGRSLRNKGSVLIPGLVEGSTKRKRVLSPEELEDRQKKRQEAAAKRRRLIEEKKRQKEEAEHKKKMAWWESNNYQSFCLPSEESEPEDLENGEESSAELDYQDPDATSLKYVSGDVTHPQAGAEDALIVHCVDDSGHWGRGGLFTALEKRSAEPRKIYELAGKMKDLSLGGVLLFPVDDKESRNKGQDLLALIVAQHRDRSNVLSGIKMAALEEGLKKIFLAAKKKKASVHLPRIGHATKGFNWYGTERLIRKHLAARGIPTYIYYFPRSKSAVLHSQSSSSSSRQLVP
UniProt Q14839: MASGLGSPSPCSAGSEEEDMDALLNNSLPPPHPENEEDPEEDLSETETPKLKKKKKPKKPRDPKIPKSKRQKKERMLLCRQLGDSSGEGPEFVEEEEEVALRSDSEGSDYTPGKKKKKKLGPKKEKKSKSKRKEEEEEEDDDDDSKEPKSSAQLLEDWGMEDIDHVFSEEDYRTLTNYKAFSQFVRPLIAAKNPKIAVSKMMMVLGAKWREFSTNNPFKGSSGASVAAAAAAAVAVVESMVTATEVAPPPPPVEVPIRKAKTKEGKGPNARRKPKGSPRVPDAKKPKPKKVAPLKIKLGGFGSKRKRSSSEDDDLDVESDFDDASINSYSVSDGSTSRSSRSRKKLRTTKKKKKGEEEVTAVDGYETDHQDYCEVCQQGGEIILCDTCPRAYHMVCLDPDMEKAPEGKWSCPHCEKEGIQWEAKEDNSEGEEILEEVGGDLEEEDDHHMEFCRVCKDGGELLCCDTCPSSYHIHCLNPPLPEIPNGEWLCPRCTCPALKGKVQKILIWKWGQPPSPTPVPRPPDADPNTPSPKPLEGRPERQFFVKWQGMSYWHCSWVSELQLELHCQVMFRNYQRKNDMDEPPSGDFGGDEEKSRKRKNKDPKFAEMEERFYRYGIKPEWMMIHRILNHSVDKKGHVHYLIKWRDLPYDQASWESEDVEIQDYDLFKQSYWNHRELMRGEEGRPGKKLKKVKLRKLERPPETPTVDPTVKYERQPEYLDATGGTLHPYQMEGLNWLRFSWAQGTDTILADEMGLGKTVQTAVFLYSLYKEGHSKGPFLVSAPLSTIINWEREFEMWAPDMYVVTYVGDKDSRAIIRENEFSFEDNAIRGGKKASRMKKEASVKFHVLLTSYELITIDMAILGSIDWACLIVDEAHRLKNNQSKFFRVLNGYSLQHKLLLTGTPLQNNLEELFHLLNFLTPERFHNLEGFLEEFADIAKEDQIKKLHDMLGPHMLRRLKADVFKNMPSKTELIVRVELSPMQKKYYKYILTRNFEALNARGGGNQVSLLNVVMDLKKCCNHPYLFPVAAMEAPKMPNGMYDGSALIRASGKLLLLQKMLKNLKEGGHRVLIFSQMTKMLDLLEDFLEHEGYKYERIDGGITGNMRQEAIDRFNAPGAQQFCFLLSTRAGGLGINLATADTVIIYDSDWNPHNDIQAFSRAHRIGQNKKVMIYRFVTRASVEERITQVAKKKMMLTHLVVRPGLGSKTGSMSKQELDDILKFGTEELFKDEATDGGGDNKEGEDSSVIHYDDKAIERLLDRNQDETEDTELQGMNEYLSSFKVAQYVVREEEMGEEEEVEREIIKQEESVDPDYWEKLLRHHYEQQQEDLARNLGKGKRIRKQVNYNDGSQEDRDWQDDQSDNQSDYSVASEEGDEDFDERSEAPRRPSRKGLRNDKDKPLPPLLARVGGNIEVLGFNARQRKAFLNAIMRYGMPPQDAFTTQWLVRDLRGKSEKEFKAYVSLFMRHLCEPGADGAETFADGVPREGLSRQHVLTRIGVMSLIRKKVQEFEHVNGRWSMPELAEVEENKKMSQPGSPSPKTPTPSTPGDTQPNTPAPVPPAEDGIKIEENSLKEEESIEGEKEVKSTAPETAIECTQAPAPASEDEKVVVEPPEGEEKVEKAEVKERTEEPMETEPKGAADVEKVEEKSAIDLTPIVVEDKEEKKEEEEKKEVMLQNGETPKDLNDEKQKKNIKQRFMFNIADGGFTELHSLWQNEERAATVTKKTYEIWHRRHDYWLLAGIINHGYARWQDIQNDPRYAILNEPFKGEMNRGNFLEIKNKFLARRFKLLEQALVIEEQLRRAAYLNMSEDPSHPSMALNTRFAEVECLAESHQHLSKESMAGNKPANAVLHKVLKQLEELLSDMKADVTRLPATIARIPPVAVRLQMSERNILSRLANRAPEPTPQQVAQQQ
UniProt P09874: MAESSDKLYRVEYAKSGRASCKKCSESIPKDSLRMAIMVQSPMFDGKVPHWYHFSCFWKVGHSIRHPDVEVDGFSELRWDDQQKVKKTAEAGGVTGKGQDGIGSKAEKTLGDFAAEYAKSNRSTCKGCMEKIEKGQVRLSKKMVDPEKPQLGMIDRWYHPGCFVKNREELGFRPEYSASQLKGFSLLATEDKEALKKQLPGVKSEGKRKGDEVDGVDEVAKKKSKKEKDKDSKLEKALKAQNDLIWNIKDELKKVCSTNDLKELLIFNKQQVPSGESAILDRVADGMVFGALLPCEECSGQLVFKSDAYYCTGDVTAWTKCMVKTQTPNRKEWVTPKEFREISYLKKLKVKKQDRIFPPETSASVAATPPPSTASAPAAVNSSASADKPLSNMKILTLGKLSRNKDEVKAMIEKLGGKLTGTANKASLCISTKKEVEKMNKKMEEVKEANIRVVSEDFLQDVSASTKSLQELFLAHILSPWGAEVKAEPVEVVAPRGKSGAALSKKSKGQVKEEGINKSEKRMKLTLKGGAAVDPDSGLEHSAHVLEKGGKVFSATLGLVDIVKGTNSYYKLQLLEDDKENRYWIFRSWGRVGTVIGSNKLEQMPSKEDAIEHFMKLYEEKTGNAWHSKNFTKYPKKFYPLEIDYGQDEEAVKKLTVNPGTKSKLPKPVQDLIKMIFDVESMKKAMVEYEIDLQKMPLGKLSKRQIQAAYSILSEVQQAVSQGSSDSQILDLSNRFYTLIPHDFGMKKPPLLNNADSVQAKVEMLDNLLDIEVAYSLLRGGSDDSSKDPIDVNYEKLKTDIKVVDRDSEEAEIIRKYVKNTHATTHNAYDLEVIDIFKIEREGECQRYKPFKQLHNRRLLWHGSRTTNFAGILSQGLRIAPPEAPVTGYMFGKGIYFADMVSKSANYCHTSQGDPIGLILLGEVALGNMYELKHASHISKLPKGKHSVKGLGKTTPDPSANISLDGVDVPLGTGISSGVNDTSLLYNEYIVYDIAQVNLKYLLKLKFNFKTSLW
UniProt P12004: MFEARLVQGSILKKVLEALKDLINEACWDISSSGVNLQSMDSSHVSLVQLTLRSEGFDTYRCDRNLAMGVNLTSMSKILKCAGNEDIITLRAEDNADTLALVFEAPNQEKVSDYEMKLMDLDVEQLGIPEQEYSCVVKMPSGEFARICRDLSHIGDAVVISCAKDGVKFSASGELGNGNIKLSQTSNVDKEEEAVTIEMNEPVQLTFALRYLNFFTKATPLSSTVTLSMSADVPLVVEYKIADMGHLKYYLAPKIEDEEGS

The assay has as its target T1, FLAG-tagged GLIS2 (GLIS family zinc finger protein 2) (mouse) (UniProt Q8VDL9).
T1 sequence: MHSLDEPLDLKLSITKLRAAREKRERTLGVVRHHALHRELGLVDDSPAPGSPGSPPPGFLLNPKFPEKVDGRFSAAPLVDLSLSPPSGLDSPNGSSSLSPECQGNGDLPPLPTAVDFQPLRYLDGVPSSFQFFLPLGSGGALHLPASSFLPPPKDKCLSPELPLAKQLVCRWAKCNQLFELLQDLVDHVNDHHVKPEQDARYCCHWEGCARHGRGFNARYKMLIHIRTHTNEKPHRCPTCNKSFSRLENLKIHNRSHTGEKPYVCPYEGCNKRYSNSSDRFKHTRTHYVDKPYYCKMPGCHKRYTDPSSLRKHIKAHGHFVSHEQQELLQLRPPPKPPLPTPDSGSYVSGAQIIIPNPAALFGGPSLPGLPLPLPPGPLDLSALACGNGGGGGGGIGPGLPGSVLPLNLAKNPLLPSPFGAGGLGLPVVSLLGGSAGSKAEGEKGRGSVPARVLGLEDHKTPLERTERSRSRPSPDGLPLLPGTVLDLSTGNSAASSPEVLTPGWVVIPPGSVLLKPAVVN
Put plainly: affinity purification with mass spectrometry.

No constants are given. Whether binding was seen depends on the method and setting. In cells and extracts the contact can be indirect. These calls come from enrichment with a bait or labelling near it, and not all partners need be listed. Tags and fused reporters may be left off the sequences shown.

As for “ATP-dependent RNA helicase DDX3X (from UniProt O00571 1-662)”, the binding entry is listed as “binds”.
Consider “Bcl-2-associated transcription factor 1 (from UniProt Q9NYF8 1-920)”, for which the binding entry is listed as “binds”.
On to “Chromodomain-helicase-DNA-binding protein 1-like (from UniProt Q86WJ1 1-897)”, for which the binding result is listed as “binds”.
The result for “Chromodomain-helicase-DNA-binding protein 4 (from UniProt Q14839 1-1912)” reads “binds”.
For the substance “Poly[ADP-ribose]polymerase 1 (from UniProt P09874 1-1014)”, the binding entry is recorded as “binds”.
With “Proliferating cell nuclear antigen (from UniProt P12004 1-261)”, the binding entry is “binds”.
